The supplement of paper PMC10849652
The list shows a part of the results.

The chains behind the UniProt entries cited, without tags or fusion partners. Where a name states a change or a piece, a line headed by the entry shows the natural chain unless it says otherwise.
UniProt P12318: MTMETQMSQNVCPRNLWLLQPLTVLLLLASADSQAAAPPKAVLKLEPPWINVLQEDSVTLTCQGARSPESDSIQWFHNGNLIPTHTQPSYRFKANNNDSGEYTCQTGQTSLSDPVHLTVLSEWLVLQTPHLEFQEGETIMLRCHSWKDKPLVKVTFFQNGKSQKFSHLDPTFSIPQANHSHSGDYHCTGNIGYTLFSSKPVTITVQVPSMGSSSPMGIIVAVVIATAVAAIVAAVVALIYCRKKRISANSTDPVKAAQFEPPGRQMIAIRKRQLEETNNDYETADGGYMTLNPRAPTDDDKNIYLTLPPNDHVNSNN
UniProt Q9H9S5: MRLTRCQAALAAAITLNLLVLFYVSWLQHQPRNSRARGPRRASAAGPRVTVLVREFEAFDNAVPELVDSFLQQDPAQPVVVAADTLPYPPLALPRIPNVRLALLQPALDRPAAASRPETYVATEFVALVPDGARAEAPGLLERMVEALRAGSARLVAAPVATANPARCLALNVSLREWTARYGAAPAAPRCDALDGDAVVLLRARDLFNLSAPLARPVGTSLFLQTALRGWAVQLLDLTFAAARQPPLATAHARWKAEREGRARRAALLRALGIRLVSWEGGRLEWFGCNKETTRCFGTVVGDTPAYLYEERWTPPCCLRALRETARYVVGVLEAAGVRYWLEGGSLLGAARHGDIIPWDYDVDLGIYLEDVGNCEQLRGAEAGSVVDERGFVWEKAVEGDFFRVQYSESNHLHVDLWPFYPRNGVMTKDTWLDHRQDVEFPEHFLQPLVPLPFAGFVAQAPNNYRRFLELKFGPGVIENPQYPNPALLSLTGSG
UniProt P22570: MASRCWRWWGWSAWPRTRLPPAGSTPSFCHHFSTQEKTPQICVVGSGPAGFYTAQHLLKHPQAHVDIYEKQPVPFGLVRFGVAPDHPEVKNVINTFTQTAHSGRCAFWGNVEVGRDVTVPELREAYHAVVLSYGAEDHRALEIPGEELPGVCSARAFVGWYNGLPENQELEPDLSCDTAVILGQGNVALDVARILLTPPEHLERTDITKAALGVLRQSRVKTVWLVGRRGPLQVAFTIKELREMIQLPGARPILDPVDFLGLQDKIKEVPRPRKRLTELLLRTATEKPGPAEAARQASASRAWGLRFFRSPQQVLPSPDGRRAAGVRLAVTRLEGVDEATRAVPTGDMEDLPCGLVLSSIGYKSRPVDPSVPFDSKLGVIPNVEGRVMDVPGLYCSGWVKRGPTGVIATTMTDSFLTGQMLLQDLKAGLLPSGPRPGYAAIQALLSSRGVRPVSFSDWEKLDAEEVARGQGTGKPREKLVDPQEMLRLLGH
UniProt Q6UN15: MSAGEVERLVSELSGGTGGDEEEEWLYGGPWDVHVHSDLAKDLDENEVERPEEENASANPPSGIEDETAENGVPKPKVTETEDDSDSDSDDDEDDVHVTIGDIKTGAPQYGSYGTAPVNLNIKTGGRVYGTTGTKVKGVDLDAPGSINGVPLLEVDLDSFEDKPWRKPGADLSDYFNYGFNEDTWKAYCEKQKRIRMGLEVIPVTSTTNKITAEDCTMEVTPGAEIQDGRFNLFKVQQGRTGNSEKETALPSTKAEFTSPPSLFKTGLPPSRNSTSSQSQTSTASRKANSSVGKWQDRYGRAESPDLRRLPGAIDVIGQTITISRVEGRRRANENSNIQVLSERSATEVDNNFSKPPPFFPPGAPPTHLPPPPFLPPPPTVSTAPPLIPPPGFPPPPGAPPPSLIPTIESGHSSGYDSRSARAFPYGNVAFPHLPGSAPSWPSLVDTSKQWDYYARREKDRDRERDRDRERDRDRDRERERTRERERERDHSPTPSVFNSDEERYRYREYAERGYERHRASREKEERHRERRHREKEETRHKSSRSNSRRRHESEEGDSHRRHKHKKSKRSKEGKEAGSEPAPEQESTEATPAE
UniProt Q9H0X4: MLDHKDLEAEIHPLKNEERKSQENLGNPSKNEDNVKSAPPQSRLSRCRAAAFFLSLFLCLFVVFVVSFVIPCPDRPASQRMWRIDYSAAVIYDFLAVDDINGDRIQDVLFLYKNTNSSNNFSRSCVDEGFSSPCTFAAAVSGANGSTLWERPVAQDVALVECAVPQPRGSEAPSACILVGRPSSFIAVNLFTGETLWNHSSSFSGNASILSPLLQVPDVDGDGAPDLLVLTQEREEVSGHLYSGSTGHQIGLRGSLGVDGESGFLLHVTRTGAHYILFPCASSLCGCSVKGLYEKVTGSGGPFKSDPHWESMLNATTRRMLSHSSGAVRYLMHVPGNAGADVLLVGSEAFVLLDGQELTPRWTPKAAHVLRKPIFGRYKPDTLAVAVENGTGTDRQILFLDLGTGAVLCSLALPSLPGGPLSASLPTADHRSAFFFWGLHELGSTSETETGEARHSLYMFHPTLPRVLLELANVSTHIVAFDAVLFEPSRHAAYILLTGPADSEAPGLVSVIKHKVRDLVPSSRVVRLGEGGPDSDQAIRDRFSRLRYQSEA
UniProt Q9NXK8: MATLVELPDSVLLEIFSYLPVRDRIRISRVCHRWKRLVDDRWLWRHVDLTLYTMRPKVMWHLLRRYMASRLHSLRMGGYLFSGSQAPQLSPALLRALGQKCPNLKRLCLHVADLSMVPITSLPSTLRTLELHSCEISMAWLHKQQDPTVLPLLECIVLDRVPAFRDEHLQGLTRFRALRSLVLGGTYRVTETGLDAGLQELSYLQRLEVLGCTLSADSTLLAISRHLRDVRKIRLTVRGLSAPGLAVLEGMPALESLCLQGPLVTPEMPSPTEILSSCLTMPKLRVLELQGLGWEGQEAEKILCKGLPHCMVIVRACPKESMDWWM
UniProt Q9UIM3: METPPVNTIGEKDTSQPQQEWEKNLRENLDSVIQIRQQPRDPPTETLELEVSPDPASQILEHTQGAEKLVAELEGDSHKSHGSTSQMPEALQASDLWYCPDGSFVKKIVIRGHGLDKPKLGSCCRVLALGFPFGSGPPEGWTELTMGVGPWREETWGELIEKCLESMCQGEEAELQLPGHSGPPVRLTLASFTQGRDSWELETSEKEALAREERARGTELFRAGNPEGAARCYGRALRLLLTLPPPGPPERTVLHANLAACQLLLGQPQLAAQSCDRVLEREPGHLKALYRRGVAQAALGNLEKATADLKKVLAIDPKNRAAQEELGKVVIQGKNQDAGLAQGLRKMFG
UniProt P10109: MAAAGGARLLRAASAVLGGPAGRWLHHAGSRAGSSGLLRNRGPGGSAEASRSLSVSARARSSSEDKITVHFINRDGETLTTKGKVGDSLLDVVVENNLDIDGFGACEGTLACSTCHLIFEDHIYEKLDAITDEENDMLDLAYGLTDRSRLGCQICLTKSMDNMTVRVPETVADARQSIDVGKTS
UniProt Q658Y4: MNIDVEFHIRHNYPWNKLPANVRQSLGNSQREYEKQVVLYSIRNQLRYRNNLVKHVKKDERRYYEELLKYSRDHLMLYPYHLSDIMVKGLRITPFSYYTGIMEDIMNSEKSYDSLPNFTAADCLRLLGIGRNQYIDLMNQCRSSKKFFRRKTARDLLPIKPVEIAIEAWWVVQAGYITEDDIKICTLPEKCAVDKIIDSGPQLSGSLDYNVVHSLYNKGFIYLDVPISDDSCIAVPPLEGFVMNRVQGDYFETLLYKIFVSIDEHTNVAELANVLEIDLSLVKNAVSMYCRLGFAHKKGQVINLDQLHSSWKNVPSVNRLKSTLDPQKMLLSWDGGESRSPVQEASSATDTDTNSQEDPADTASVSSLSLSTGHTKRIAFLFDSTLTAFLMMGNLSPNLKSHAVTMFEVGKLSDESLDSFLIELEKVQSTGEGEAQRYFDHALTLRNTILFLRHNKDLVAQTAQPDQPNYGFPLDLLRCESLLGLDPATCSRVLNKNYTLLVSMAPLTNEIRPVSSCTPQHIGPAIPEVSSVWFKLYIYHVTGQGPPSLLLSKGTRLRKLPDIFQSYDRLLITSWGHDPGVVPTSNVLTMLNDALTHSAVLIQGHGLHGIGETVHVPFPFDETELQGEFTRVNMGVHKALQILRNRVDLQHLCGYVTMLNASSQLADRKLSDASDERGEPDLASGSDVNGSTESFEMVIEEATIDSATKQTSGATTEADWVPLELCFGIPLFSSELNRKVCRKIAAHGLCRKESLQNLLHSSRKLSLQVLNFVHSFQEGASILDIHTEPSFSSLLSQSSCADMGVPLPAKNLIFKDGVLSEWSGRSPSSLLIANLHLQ
UniProt Q8TB52: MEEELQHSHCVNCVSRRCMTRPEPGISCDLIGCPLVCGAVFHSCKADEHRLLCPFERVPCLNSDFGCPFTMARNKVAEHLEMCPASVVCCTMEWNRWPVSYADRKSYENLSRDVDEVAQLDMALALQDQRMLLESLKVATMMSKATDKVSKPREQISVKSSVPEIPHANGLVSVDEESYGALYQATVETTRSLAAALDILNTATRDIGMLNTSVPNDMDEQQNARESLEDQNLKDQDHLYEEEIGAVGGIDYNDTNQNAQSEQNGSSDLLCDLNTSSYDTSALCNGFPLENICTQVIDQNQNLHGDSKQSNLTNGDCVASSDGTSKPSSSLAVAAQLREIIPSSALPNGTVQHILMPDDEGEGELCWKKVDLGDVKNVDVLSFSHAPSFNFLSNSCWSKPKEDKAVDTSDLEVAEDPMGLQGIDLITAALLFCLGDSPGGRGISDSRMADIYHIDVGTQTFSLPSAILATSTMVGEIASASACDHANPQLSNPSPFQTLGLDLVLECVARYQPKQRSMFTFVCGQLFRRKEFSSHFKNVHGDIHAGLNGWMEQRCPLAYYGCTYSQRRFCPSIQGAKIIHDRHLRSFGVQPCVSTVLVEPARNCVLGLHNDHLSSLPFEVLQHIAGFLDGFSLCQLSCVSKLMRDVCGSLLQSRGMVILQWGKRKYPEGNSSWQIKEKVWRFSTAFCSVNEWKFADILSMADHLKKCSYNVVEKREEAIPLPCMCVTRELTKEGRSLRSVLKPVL
UniProt Q9Y3I1: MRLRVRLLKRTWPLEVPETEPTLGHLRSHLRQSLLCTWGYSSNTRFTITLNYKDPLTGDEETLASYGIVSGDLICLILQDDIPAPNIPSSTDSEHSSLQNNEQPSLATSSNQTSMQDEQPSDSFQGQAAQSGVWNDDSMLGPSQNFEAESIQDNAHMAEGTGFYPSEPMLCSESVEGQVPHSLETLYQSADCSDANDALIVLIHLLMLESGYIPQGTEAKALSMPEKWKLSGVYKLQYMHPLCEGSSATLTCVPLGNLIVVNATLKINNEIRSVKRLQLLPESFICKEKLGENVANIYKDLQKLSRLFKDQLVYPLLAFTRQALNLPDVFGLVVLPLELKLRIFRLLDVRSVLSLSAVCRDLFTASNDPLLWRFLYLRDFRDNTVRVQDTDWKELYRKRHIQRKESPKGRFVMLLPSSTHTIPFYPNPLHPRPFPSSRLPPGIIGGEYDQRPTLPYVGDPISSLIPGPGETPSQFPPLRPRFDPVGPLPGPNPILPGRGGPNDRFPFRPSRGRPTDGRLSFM
UniProt Q5HYJ3: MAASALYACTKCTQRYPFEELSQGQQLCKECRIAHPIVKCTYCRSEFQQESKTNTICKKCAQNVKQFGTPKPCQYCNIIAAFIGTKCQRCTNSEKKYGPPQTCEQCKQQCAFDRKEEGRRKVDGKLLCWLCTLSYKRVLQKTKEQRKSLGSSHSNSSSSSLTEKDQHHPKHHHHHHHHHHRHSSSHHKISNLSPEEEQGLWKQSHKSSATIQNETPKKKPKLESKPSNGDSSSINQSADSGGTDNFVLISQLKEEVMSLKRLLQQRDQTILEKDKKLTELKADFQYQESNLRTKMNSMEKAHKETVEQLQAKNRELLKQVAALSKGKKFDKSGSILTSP
UniProt P98173: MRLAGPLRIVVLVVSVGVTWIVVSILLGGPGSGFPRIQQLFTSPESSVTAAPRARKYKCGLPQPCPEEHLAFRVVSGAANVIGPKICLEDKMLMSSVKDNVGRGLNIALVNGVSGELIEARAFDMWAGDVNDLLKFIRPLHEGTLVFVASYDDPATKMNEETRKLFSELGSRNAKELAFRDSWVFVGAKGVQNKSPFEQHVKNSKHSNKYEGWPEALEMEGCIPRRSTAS
UniProt Q13643: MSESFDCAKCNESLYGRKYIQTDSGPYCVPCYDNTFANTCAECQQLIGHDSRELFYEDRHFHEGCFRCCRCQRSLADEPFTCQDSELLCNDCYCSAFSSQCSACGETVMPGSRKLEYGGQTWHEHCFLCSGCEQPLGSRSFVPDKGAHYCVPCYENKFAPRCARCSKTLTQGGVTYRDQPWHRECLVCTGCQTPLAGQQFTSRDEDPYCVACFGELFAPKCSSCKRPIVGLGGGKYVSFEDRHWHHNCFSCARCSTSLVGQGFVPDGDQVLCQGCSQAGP
UniProt Q9NUQ9: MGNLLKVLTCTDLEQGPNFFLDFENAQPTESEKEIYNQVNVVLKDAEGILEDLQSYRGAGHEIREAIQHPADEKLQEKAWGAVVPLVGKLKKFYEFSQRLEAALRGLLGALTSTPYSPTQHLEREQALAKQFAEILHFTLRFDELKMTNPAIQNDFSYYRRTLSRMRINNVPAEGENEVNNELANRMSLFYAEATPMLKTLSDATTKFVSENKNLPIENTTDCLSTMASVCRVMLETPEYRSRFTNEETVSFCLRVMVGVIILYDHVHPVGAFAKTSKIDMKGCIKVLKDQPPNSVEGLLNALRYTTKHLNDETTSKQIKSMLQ

compound: CN1CCN(CCOc2cc(OC3CCOCC3)c3c(Nc4c(Cl)ccc5c4OCO5)ncnc3c2)CC1 [saracatinib]; test: log2 fold change, soluble protein after heating vs DMSO (PISA); higher = thermal stabilisation; K562 cells, 10 uM, 30 min; active = over 0.2 and 3.5 SD of the protein, either way, in both replicates (recomputed)
Summary of the method: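 Quantification of soluble protein used TMTpro 16plex LC-MS/MS, with channel sums equalised. Samples were the supernatant after 21,000xg for 90 min of pooled aliquots from K562 cells (2×10^6 cells/mL) treated with 10 μM compound for 30 min, heated for 3 min over 48°C-58°C, and extracted in PBS with 0.5% NP-40 at 4°C. Values, from duplicates, describe thermal stability against control samples on a log2 fold-change scale.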

Row | Target | log2 fold change
1 | FN3KRP (UniProt Q9HA64) | inactive: 0.028
2 | FCGR2A (UniProt P12318) | inactive: 0.107
3 | FKRP (UniProt Q9H9S5) | inactive: 0.08
4 | FDXR isoform 7 (UniProt P22570) | inactive: -0.027
5 | FIP1L1 (UniProt Q6UN15) | inactive: 0.089
6 | FAM234A (UniProt Q9H0X4) | inactive: -0.089
7 | FLNA (UniProt P21333) | inactive: -0.076
8 | FAM98A (UniProt Q8NCA5) | inactive: -0.058
9 | FLT4 (UniProt P35916) | inactive: 0.069
10 | FBXL12 (UniProt Q9NXK8) | inactive: 0.056
11 | FKBPL (UniProt Q9UIM3) | inactive: 0.003
12 | FDX1 (UniProt P10109) | inactive: 0.046
13 | FAM219A (UniProt Q8IW50) | inactive: 0.132
14 | FAM91A1 (UniProt Q658Y4) | inactive: 0.055
15 | FBXO30 (UniProt Q8TB52) | inactive: 0.01
16 | FBXO7 (UniProt Q9Y3I1) | inactive: -0.003
17 | FAM76B (UniProt Q5HYJ3) | inactive: -0.033
18 | FAM3A (UniProt P98173) | inactive: 0.038
19 | FANCB (UniProt Q8NB91) | inactive: 0.032
20 | FECH isoform 2 (UniProt P22830) | inactive: -0.035
21 | FHL3 (UniProt Q13643) | inactive: 0.018
22 | FKBP9 (UniProt O95302) | inactive: -0.11
23 | FAM49B (UniProt Q9NUQ9) | inactive: 0.023

Numbers 14–17 from above:
Row | Target | log2 fold change
14 | FAM91A1 (UniProt Q658Y4) | inactive: 0.055
15 | FBXO30 (UniProt Q8TB52) | inactive: 0.01
16 | FBXO7 (UniProt Q9Y3I1) | inactive: -0.003
17 | FAM76B (UniProt Q5HYJ3) | inactive: -0.033
